# Test results taken from PubChem BioAssay AID504834 (National Center for Advancing Translational Sciences (NCATS), 2011).
# About 22,000 (6.9%) of roughly 320,000 compounds were called active. The shares of active, inactive and inconclusive entries below differ from those in the screen. Calls follow the shape of the dose curve; as a rule, active = well fitted inhibition curve with a large enough effect; inconclusive = small, poorly fitted or top-dose-only effect, or another doubt; inactive = no such curve, though single readings can be large or run the other way. A potency beside an inconclusive call is a rough fit, not a confirmed value.
# Assay: Primary qHTS for delayed death inhibitors of the malarial parasite plastid, 96 hour incubation
# Conditions: P. falciparum luciferase reporter growth; series mostly up to 28.7 µM; activity change, negative = inhibition: at the top concentration
# Procedure, shortened: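 Two-generation exposure (96 h) targets delayed-death phenotype. Reporter parasites carrying integrated firefly luciferase, in red cells at 2% hematocrit and 0.05% parasitemia final, kept at 37 C, 5% CO2; luminescence loss indicates inhibition.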
# % is scaled to controls: 0 for no effect and ±100 for the full control effect; potency is read from the fitted curve at half-maximal effect.
SMILES,Potency,"activity change, negative = inhibition"
COc1ccc(CNC(=S)N2CCN(S(=O)(=O)c3cccc(F)c3)CC2)cc1,active: 3.29 µM,
Nc1ccc2sc(N)nc2c1,"inconclusive: 16.5 µM [inhibitor, single point]",
O=C(Nc1ccc(SC(F)F)cc1)C1CC(=O)N(Cc2ccccc2)C1 (centres undefined),"inconclusive: 18.5 µM [inhibitor, single point]",
CCC1=Nc2cc(C(=O)NCCCN3CCN(C)CC3)ccc2Sc2ccccc21,,inactive: 22.4%
O=C(CN1CCN(S(=O)(=O)c2ccc(Cl)cc2)CC1)NC(=O)NC1CCCCC1,"inconclusive: 9.28 µM [inhibitor, single point]",
CCC(C)NC(=O)c1cc(CC(C)C)on1 (centres undefined),active: 11.7 µM,
CC1CCN(S(=O)(=O)c2ccc(C(=O)Nc3ccccn3)cc2)CC1,"inconclusive: 13.1 µM [inhibitor, single point]",
COc1ccc(-c2cn3cc(C)ccc3n2)cc1F,"inconclusive: 11.7 µM [inhibitor, single point]",
COC(=O)c1ccccc1NC(=O)CNc1cc(OC)c(OC)cc1C,"inconclusive: 18.5 µM [inhibitor, single point]",
Cc1cc(C(C)C)n2c(nc3ccccc32)c1C#N,,inactive: -13.6%
Cc1sc2ncnc(NCCc3ccc(S(N)(=O)=O)cc3)c2c1C,"inconclusive: 20.8 µM [inhibitor, partial curve, poor fit]",
Nc1ccc(C(=O)OCC(=O)N2c3ccccc3Sc3ccccc32)cc1[N+](=O)[O-],"inconclusive: 11.7 µM [inhibitor, single point]",
COc1ccc(C(=O)/C=C/c2cccs2)c(OC(=O)c2cccc([N+](=O)[O-])c2)c1,,inactive: -24.3%
Cc1cc(-c2nnc(-c3cc4ccccc4oc3=O)o2)c(C)n1-c1ccccc1,"inconclusive: 0.415 µM [inhibitor, full curve, poor fit]",
Cc1cc(C)nc(SCC(=O)c2ccc3c(c2)OCCO3)n1,"inconclusive: 10.4 µM [inhibitor, single point]",
CCN(CC)S(=O)(=O)c1ccc2c(c1)oc(=O)n2CC(=O)NC1CCCCC1,"inconclusive: 6.57 µM [inhibitor, partial curve]",
CCOc1ccccc1C(=O)Nc1cccc2cccnc12,"inconclusive: 2.94 µM [inhibitor, partial curve]",
CCS(=O)(=O)n1nc(-c2ccccc2)nc1SC,,inactive: 60.1%
COc1cccc(NC(=S)NNC(=O)C(C)n2nc(C)c([N+](=O)[O-])c2C)c1 (centres undefined),"inconclusive: 0.0294 µM [inhibitor, full curve, poor fit]",

# Some of the entries so far, tab-delimited.
SMILES	Potency	activity change, negative = inhibition
O=C(Nc1ccc(SC(F)F)cc1)C1CC(=O)N(Cc2ccccc2)C1 (centres undefined)	inconclusive: 18.5 µM [inhibitor, single point]	
CCC1=Nc2cc(C(=O)NCCCN3CCN(C)CC3)ccc2Sc2ccccc21		inactive: 22.4%
